Measurements: doi:10.1101/2024.11.05.621850

Chains of the proteins cited; added tags and fusions are not shown.
UniProt P20338: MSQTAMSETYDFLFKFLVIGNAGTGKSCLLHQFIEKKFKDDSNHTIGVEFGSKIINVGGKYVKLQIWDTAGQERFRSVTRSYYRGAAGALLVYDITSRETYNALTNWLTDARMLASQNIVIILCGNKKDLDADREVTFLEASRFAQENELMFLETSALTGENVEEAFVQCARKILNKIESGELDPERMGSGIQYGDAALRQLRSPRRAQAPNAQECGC

T1: MYC:APEX2:RAB30 (human) (UniProt Q15771)
T1 sequence: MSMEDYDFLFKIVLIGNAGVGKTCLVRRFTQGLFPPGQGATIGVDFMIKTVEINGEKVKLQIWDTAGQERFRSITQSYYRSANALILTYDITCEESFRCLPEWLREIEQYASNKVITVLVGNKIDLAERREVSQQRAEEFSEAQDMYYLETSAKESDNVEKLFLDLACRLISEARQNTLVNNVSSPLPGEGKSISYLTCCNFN


How the values were obtained:
[1] = molecular target: T1, MYC:APEX2:RAB30 (human); test: proximity labelling
[2] = molecular target: APEX2:RAB4A (human) (UniProt P20338); test: proximity labelling

binding [1] | binding [2] | Binder
binds |  | RIC1 (protein, UniProt Q4ADV7 1-1423) MYFLSGWPKRLLCPLGSPAEAPFHVQSDPQRAFFAVLAAARLSIWYSRPSVLIVTYKEPAKSSTQFGSYKQAEWRPDSTMIAVSTANGYILFFHITSTRGDKYLYEPVYPKGSPQMKGTPHFKEEQCAPALNLEMRKILDLQAPIMSLQSVLEDLLVATSDGLLHLIHWEGMTNGRKAINLCTVPFSVDLQSSRVGSFLGFTDVHIRDMEYCATLDGFAVVFNDGKVGFITPVSSRFTAEQLHGVWPQDVVDGTCVAVNNKYRLMAFGCVSGSVQVYTIDNSTGAMLLSHKLELTAKQYPDIWNKTGAVKLMRWSPDNSVVIVTWEYGGLSLWSVFGAQLICTLGGDFAYRSDGTKKDPLKINSMSWGAEGYHLWVISGFGSQNTEIESDLRSVVKQPSILLFQFIKSVLTVNPCMSNQEQVLLQGEDRLYLNCGEASQTQNPRSSSTHSEHKPSREKSPFADGGLESQGLSTLLGHRHWHVVQISSTYLESNWPIRFSAIDKLGQNIAVVGKFGFAHYSLLTKKWKLFGNITQEQNMIVTGGLAWWNDFMVLACYNINDRQEELRVYLRTSNLDNAFAHVTKAQAETLLLSVFQDMVIVFRADCSICLYSIERKSDGPNTTAGIQVLQEVSMSRYIPHPFLVVSVTLTSVSTENGITLKMPQQARGAESIMLNLAGQLIMMQRDRSGPQIREKDSNPNNQRKLLPFCPPVVLAQSVENVWTTCRANKQKRHLLEALWLSCGGAGMKVWLPLFPRDHRKPHSFLSQRIMLPFHINIYPLAVLFEDALVLGAVNDTLLYDSLYTRNNAREQLEVLFPFCVVERTSQIYLHHILRQLLVRNLGEQALLLAQSCATLPYFPHVLELMLHEVLEEEATSREPIPDPLLPTVAKFITEFPLFLQTVVHCARKTEYALWNYLFAAVGNPKDLFEECLMAQDLDTAASYLIILQNMEVPAVSRQHATLLFNTALEQGKWDLCRHMIRFLKAIGSGESETPPSTPTAQEPSSSGGFEFFRNRSISLSQSAENVPASKFSLQKTLSMPSGPSGKRWSKDSDCAENMYIDMMLWRHARRLLEDVRLKDLGCFAAQLGFELISWLCKERTRAARVDNFVIALKRLHKDFLWPLPIIPASSISSPFKNGKYRTVGEQLLKSQSADPFLNLEMDAGISNIQRSQSWLSNIGPTHHEIDTASSHGPQMQDAFLSPLSNKGDECSIGSATDLTESSSMVDGDWTMVDENFSTLSLTQSELEHISMELASKGPHKSQVQLRYLLHIFMEAGCLDWCIVIGLILRESSIINQILVITQSSEVDGEMLQNIKTGLHAVDRWASTDCPGYKPFLNIIKPQLQKLSEITEEQVQPDAFQPITMGKTPEQTSPRAEESRGSSSHGSIPQGEVGSSNMVSRKEEDTAQAEEEEPFQDGTYDCSVS
 | no binding | VPS54 (endogenous) (protein, UniProt Q9P1Q0 1-977) MASSHSSSPVPQGSSSDVFFKIEVDPSKHIRPVPSLPDVCPKEPTGDSHSLYVAPSLVTDQHRWTVYHSKVNLPAALNDPRLAKRESDFFTKTWGLDFVDTEVIPSFYLPQISKEHFTVYQQEISQREKIHERCKNICPPKDTFERTLLHTHDKSRTDLEQVPKIFMKPDFALDDSLTFNSVLPWSHFNTAGGKGNRDAASSKLLQEKLSHYLDIVEVNIAHQISLRSEAFFHAMTSQHELQDYLRKTSQAVKMLRDKIAQIDKVMCEGSLHILRLALTRNNCVKVYNKLKLMATVHQTQPTVQVLLSTSEFVGALDLIATTQEVLQQELQGIHSFRHLGSQLCELEKLIDKMMIAEFSTYSHSDLNRPLEDDCQVLEEERLISLVFGLLKQRKLNFLEIYGEKMVITAKNIIKQCVINKVSQTEEIDTDVVVKLADQMRMLNFPQWFDLLKDIFSKFTIFLQRVKATLNIIHSVVLSVLDKNQRTRELEEISQQKNAAKDNSLDTEVAYLIHEGMFISDAFGEGELTPIAVDTTSQRNASPNSEPCSSDSVSEPECTTDSSSSKEHTSSSAIPGGVDIMVSEDMKLTDSELGKLANNIQELLYSASDICHDRAVKFLMSRAKDGFLEKLNSMEFITLSRLMETFILDTEQICGRKSTSLLGALQSQAIKFVNRFHEERKTKLSLLLDNERWKQADVPAEFQDLVDSLSDGKIALPEKKSGATEERKPAEVLIVEGQQYAVVGTVLLLIRIILEYCQCVDNIPSVTTDMLTRLSDLLKYFNSRSCQLVLGAGALQVVGLKTITTKNLALSSRCLQLIVHYIPVIRAHFEARLPPKQYSMLRHFDHITKDYHDHIAEISAKLVAIMDSLFDKLLSKYEVKAPVPSACFRNICKQMTKMHEAIFDLLPEEQTQMLFLRINASYKLHLKKQLSHLNVINDGGPQNGLVTADVAFYTGNLQALKGLKDLDLNMAEIWEQKR

No constants are given. Whether binding was seen depends on the method and setting. Binding seen in cells or lysates may run through a third protein. A yes stands for co-enrichment or nearness to the bait. Other partners may have been found. For some assays here: A no says only that the protein was not detected with the bait. For some assays here: Sequences can lack the tags named with a protein.
